Molecules are shown by their SMILES. This is one part of the list. These are further read-outs of the screen, such as a control signal, another cell line or another target. No call is given for them. Compounds called inactive in the main read-out are mostly missing here. The note in brackets gives the kind of curve behind each potency; many fits are weak.

Data on 61 compounds can be found in PubChem BioAssay AID2685 (National Center for Advancing Translational Sciences (NCATS), 2010).

This assay is described as follows: qHTS Assay for Lipid Storage Modulators in Drosophila S3 Cells.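 On cell number change: cells counted by Cell Tracker Red CMTPX staining in the red channel.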 The note with it: BODIPY lipid droplet fluorescence, 18-24 h; for cell number change: measured here: cell count max response, cells fed with added oleic acid. The essentials: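 Laser-scanning cytometry quantifies lipid droplet accumulation (500–530 nm total intensity; droplet/cell object ratio) in oleic acid-fed (400 uM added) Drosophila S3 cells treated with a concentration series. 20 uM Triacsin C defined 100% inhibition.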

Where [1] appears, read: measured here: cell number channel AC50, cells fed with added oleic acid.
Setting [2] is: measured here: lipid fluorescence (Fed channel) AC50, cells fed with added oleic acid.

Turning to `COc1ccc(/C=N/n2c(C)cc(C)c(C(N)=O)c2=O)cc1`, the cell number change is -62.8%. Moreover, under setting [1], the AC50 was 29.1 µM [falling, single point]. In addition, the AC50 under setting [2] is 0.0259 µM [falling, full curve, poor fit].

Take `CCN(C(=O)CCc1nc(-c2ccccc2F)no1)c1cc(OC)ccc1OC`: the cell number change was determined as 9.96%. Besides, the AC50 under setting [2] was 0.651 µM [rising, partial curve, poor fit].

For the compound `CN(Cc1cccc(F)c1)C(=O)c1cc(=O)[nH]c2ccccc12`, the cell number change came out at 1.61%. Also, the AC50 under setting [2] was 18.4 µM [rising, single point].

As to `C#CCC(NC(=O)c1ccc(C(F)(F)F)cc1)C(=O)NCCC` (stereo not drawn), the cell number change was 10.1%. In addition, under setting [2], the concentration at half-maximal activity (AC50) was 8.2 µM [rising, partial curve].

Consider `CC1(C)CC(=O)C=C(c2ccc3ncccc3c2)C1`, for which the cell number change was 7.92%. Under setting [2], the concentration at half-maximal activity (AC50) is 1.64 µM [rising, partial curve, poor fit].

`CC1(C)SC(=S)N(NC(=O)Nc2ccccc2)C1N(O)C(=O)Nc1cccc2ccccc12` (stereo not drawn): the cell number change was -42.1%. Further, the AC50 under setting [1] is 2.91 µM [rising, partial curve]. Also, the AC50 under setting [2] was 2.91 µM [rising, partial curve].

For `O=C(Nc1ccncc1)c1ccc(S(=O)(=O)Nc2ccccc2)cc1`, the cell number change is -10.8%. The AC50 under setting [2] is 29.1 µM [falling, single point].

As to `O=C(CSc1nnc(-c2ccccc2)n1C1CCCCC1)N1CCCC1`, the cell number change is -10.7%.

For the compound `O=C(c1ccccc1)n1c(=S)nc2ccccn21`, the cell number change is 4.19%.

`Cc1nn(CC(=O)NC2C(=O)N3C(C(=O)O)=C(CSc4nnnn4C)CSC23)cc1Br` (stereo not drawn): the cell number change is -20.1%. Under setting [2], the AC50 was 23.1 µM [falling, single point].

On to `C=CCNCc1cc(=O)n2c(-c3ccccc3)csc2n1`, for which the cell number change was 31.7%. Further, under setting [1], the AC50 is 0.651 µM [rising, full curve].

For `CC(C)(C)NC(=O)Cn1nnc(-c2ccc(Cl)cc2)n1`, the cell number change was -0.065%. Further, under setting [2], the AC50 was 4.11 µM [rising, single point].

Consider `O=C(CSc1nnc2c3c4c(sc3ncn12)CCCC4)NCc1ccco1`, for which the cell number change is 13.7%.

Take `Cc1cccc(-c2cc3nc4c(c(N5CCOCC5)n3n2)CCCC4)c1`: under setting [1], the concentration at half-maximal activity (AC50) is 6.51 µM [rising, single point].

As to `CN(/C=C/C(=O)C(F)(F)C(F)(F)F)Cc1ccccc1`, the cell number change was 19.6%. Also, the AC50 under setting [2] is 2.06 µM [falling, partial curve].

As to `C/C(N)=C(/C#N)C(=O)CSc1nc2ccccc2c(=O)n1CCCOC(C)C`, the cell number change was -42.9%. Under setting [1], the AC50 is 0.00461 µM [falling, full curve, poor fit].

As for `Cc1ccc2nc(SCC(=O)NCCCN3CCCC3=O)[nH]c2c1`, the cell number change worked out at 39.8%. For the same compound, the AC50 under setting [1] is 0.82 µM [falling, single point]. Besides, the AC50 under setting [2] is 0.82 µM [falling, single point].

In the case of `O=C(CCc1[nH]c2ccccc2c1Sc1ccccc1)NCCO`, the cell number change is -38.9%. For the same compound, the AC50 under setting [1] is 29.1 µM [falling, single point].

On to `Cn1c(SC(C(=O)Nc2ccc(F)cc2)c2ccccc2)nc2ccccc21` (stereo not drawn), for which the cell number change was -5.62%. Besides, the AC50 under setting [2] was 0.00461 µM [falling, full curve, poor fit].

With `CCOC(=O)C1=C(N)n2c(s/c(=C\c3ccco3)c2=O)=C(C(=O)OC(C)C)C1c1ccco1` (stereo not drawn), the cell number change is -10.6%. Also, under setting [2], the AC50 was 1.46 µM [falling, partial curve].

With `CC(C)(C)NC(=O)CC(CC(=O)O)c1ccccc1` (stereo not drawn), the cell number change is 0.368%. The AC50 under setting [1] is 6.51 µM [falling, single point]. The AC50 under setting [2] was 3.66 µM [falling, single point].

In the case of `O=C(CSc1nnc(-c2ccc(Cl)cc2)n1Cc1ccco1)Nc1ccc2c(c1)OCCO2`, the cell number change was -0.952%.

On to `CCCCn1nnnc1NCc1cc(OC)c(OC)c(OC)c1`, for which the cell number change worked out at 13.7%. For the same compound, the AC50 under setting [2] was 0.146 µM [falling, full curve, poor fit].

Regarding `O=C(CSc1ncn[nH]1)NCCc1ccc(Cl)cc1`, the cell number change worked out at 13.2%. The AC50 under setting [2] is 0.631 µM [rising, full curve, poor fit].

On to `Cn1c(=O)c2c(ncn2CC(=O)OCC(=O)Nc2cc(Cl)ccc2Cl)n(C)c1=O`, for which the cell number change amounted to 29.4%. In addition, the AC50 under setting [2] is 0.517 µM [rising, full curve, poor fit].

`COC(=O)c1ccc(C(=O)OC)c(NC(=O)C(C)(C)C)c1`: the cell number change was 29.6%.

With `Cc1cccc(CN2CCN(CC(=O)N3CCCC3)C2=O)c1`, the cell number change was 22.3%.

Consider `Cc1ccc(C(C)C)cc1NC(=O)Nc1ccc([N+](=O)[O-])cc1`, for which the cell number change was -30.2%. Moreover, the AC50 under setting [1] was 16.4 µM [falling, single point]. Further, under setting [2], the AC50 is 14.6 µM [falling, partial curve].

For the compound `CN(C1CCCCC1)S(=O)(=O)c1ccc(NC(=O)c2ccc(Br)o2)cc1`, the cell number change is -51.4%. For the same compound, the AC50 under setting [2] is 29.1 µM [falling, single point].

With `COc1cccc(CNC(=O)CCc2nnc3ccc(NCCCN4CCCC4=O)nn23)c1`, the cell number change was -22.9%.

Regarding `COc1ccc([N+](=O)[O-])c2c(=O)ccoc12`, the cell number change is -35.6%. The AC50 under setting [1] was 5.17 µM [falling, partial curve, poor fit].

For `O=C(CCN1C(=O)[C@@H]2Cc3ccccc3CN2C1=O)Nc1cccc(F)c1`, the cell number change came out at 32.1%. For the same compound, the AC50 under setting [2] was 29.1 µM [rising, single point].

Take `CCOC(=O)Cn1nc(-c2ccccc2)c2cnc3ccc(CC)cc3c21`: the cell number change is -5.49%. Also, the AC50 under setting [2] was 1.03 µM [rising, partial curve].

For `CCSC1(SCC)N=C(N)C2(C#N)C(c3ccc(F)cc3)C12C#N` (stereo not drawn), the cell number change is 116%. Besides, the AC50 under setting [1] is 20.6 µM [rising, single point].

Take `COC(=O)c1c(NC(=O)c2ccco2)sc2c1CCN(C(C)C)C2`: the cell number change was -19.4%. Moreover, the AC50 under setting [2] was 7.31 µM [falling, partial curve, poor fit].

Regarding `COc1ccc(N2CCN(S(=O)(=O)c3ccc(OC)c(C(=O)N4CCCCC4)c3)CC2)cc1`, the cell number change is -3.75%. The AC50 under setting [2] is 1.46 µM [falling, partial curve, poor fit].

With `O=c1oc2c(CN3CCOCC3)c(O)ccc2c2c1CCCC2`, the cell number change worked out at 20%. Further, the AC50 under setting [1] is 0.92 µM [falling, full curve]. Also, under setting [2], the AC50 is 0.92 µM [falling, full curve].

Turning to `COc1cccc(NC(=O)CC2C(=O)NCCN2C(=S)Nc2ccc(F)cc2)c1` (stereo not drawn), the cell number change is -14.8%.

Consider `COc1ccc(Cl)cc1NC(=O)CN(C)CC(=O)Nc1ccc2c(c1)OCO2`, for which the cell number change was determined as 101%. For the same compound, under setting [1], the AC50 is 11.6 µM [rising, partial curve].

In the case of `COc1ccc(CNC(=O)C(c2ccncc2)N(C(=O)Cc2cccs2)c2ccccc2)cc1` (stereo not drawn), the cell number change is 12.9%. Further, the AC50 under setting [2] was 0.13 µM [rising, full curve].

Consider `COc1ccc(CN2CCNC(=O)C2CC(=O)N(C)CCCN2CCOCC2)cc1C` (stereo not drawn), for which the cell number change is -8.55%. For the same compound, the AC50 under setting [2] was 0.13 µM [rising, full curve, poor fit].

Turning to `Nc1nc(C23CC4CC(CC(C4)C2)C3)cs1`, the cell number change is -29.1%. For the same compound, under setting [1], the AC50 is 3.66 µM [falling, full curve, poor fit]. Further, under setting [2], the AC50 is 18.4 µM [falling, single point].

Turning to `COc1ccc(N(CC(O)Cn2c(C)nc3ccccc32)S(=O)(=O)c2ccc(C)cc2)cc1` (stereo not drawn), the cell number change was -5.92%. Also, under setting [1], the AC50 is 0.116 µM [falling, full curve, poor fit]. In addition, the AC50 under setting [2] was 0.00461 µM [falling, full curve, poor fit].

For `CCOc1cc(CNc2ccc3c(c2)OCCO3)cc(Br)c1OC`, the cell number change was -51.6%. Besides, under setting [1], the AC50 is 2.06 µM [rising, single point].

Regarding `CN(C)S(=O)(=O)c1cccc(CSCc2cccc(S(=O)(=O)N(C)C)c2)c1`, the cell number change is -25.2%. In addition, the AC50 under setting [2] is 23.1 µM [falling, single point].

With `COCCNC(=O)/C(C#N)=C\c1ccc(CNS(=O)(=O)c2ccccc2)o1`, the cell number change is -14.3%. In addition, under setting [2], the AC50 is 20.6 µM [falling, single point].

For `CCc1nnc(NC(=O)C2COc3ccccc3O2)s1` (stereo not drawn), the cell number change is 44.5%. In addition, the AC50 under setting [1] was 18.4 µM [rising, single point].

Consider `COc1ccc2c(c1OC)CN1CCc3cc4c(cc3[C@@H]1[C@@H]2O)OCO4`, for which the cell number change was 10.4%. For the same compound, the AC50 under setting [2] is 2.31 µM [rising, partial curve].

Take `O=C(c1cc2nc(-c3ccc(F)cc3)cc(C(F)(F)F)n2n1)N1CCCCC1c1cccnc1` (stereo not drawn): the cell number change is -23.7%. Moreover, the AC50 under setting [2] is 20.6 µM [falling, single point].

Consider `O=C1CC(=O)N(Cc2ccco2)C(=S)N1`, for which the cell number change was -75.3%. For the same compound, the AC50 under setting [1] is 29.1 µM [falling, partial curve, poor fit].

`Cc1cc(=O)oc2cc(OS(C)(=O)=O)ccc12`: the AC50 under setting [1] is 6.51 µM [rising, single point].

In the case of `Cc1nc2ccccc2cc1C(=O)N/N=C/c1ccco1`, the cell number change was -16.7%.

As to `CCOC(=O)NC(NC(=S)Nc1ccc(OCC)cc1)C(Cl)(Cl)Cl` (stereo not drawn), the cell number change is -6.67%. Moreover, the AC50 under setting [2] was 0.184 µM [falling, full curve].

Take `COc1ccc(-c2cc(C(=O)Nc3c(C)n(C)n(-c4ccccc4)c3=O)no2)cc1`: the cell number change was 29.3%. Under setting [2], the AC50 is 29.1 µM [rising, single point].

Turning to `CCn1cc([N+](=O)[O-])c(C(=O)N2N=C(c3ccc(O)c(OC)c3)CC2c2ccccc2O)n1` (stereo not drawn), the cell number change was -71%. Under setting [1], the AC50 is 29.1 µM [falling, single point]. For the same compound, under setting [2], the AC50 is 29.1 µM [falling, single point].

Take `COc1ccccc1-c1nnc2sc(COc3ccccc3)nn12`: the cell number change was -19%. For the same compound, under setting [2], the AC50 was 0.00411 µM [rising, full curve, poor fit].

Turning to `Cc1ccc(NCC(=O)c2ccc([N+](=O)[O-])cc2)cc1`, the cell number change was -20.4%. Further, under setting [2], the AC50 was 23.1 µM [falling, partial curve, poor fit].

With `O=C(CSc1ccc2nnc(CCNC(=O)c3ccccc3)n2n1)NC1CCCC1`, the cell number change was -3.24%.

On to `O=C(COC(=O)c1c2c(nc3ccccc13)CCCC2)c1ccc(Br)s1`, for which the cell number change is -83.3%. Besides, the AC50 under setting [1] is 29.1 µM [falling, single point].

Turning to `CN(CC(=O)Nc1ccc(F)cc1)C(=O)COC(=O)c1cccc(N(C)C)c1`, the cell number change is -17.5%. Moreover, the AC50 under setting [2] was 0.651 µM [falling, single point].

Take `CN1CCN(NC(=O)c2ccc(S(=O)(=O)N3CCCCCC3)cc2)CC1`: the AC50 under setting [2] was 0.731 µM [falling, partial curve, poor fit].

A word on the AC50: it is the midpoint of the concentration-response curve, whichever way the signal moves. Read a high AC50 as activity only at high concentration.
